Screening data, single-dose tests

From ChEMBL document CHEMBL3988442, “University of Dundee, Small-Polar-MMV Screening Library” (2021).

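Whole-parasite assay of Trypanosoma brucei over 72 hours; the read-out is not stated. Concentration: 30 µM. The record gives no direction; compounds that gave an IC50 in retests scored well above the rest, so higher reads as stronger inhibition. Values scatter widely below zero; nearly all retest evidence comes from the higher of the two concentrations used. Of about 64,000 compounds tested this way, about 940 (1.5%) reached 50% or more in at least one test.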

Values are the deposited “Percent Effect”, in %.
How 0% and 100% were set is not recorded. Most values in the screen are low, and negative values occur.
Compounds were drawn at random from those tested, without regard to their results.

| # | SMILES | Percent Effect |
|---|---|---|
| 1 | `Cc1nc(CCN(C)C(=O)C2COc3ccccc3C2)no1` (centres unmarked) | 1.674 |
| 2 | `CSCC(=O)NCc1cc(Br)ccc1OC(F)F` | -18.6 |
| 3 | `Cn1ncc2c1NC(=O)CC2c1c(F)cccc1Cl` (centres unmarked) | -1.195 |
| 4 | `O=C(NCCc1ccn(-c2ccccc2)n1)N1CCC1` | 105.4 |
| 5 | `Cc1csc(C2CCCN(C(=O)c3ccc(=O)n(C)n3)C2)n1` (centres unmarked) | -36.55 |
| 6 | `Cc1nc(C)c(C)c(N2C[C@@H](CN3CCCN(C)CC3)[C@@H](CO)C2)n1` | 3.796 |
| 7 | `CC1(C)CN(CCC(=O)NCc2cccc(Cl)c2)CC[C@]1(C)O` | -0.3365 |
| 8 | `CCn1ccc(C(=O)Nc2ccc3c(c2)C(C)(C)C(=O)N3C)n1` | -2.55 |
| 9 | `CN(Cc1cc(-c2cccnc2)no1)C(=O)C1CCCN1S(C)(=O)=O` (centres unmarked) | -33.84 |
| 10 | `CSCC(C)NCc1ccc2[nH]c(C)c(C)c2c1` (centres unmarked) | -11.75 |
| 11 | `Cc1ccccc1-c1cc(C(=O)N2CCn3c(C)nnc3C2)[nH]n1` | 18.21 |
| 12 | `Cn1nccc1C(=O)N1CCOC(Cc2cccc(C(F)(F)F)c2)C1` (centres unmarked) | -11.62 |
| 13 | `CC(C(=O)NC(C)(C)C)N1CCC(C(=O)Nc2cnccn2)CC1` (centres unmarked) | -12.46 |
| 14 | `Cc1nc(CC(=O)N2CCN(CCOc3ccccc3)CC2)cs1` | 8.587 |
| 15 | `Cc1noc(C)c1S(=O)(=O)N(CC(N)=O)CC(C)C` | -28.67 |
| 16 | `CSc1nccn1-c1ccc(C(=O)NCC2CC2)cc1` | -18.9 |
| 17 | `O=C(Nc1ccc(CC(=O)N2CCSCC2)cc1)NC1CC1` | -15.49 |
| 18 | `O=C(O)C(F)(F)F.[H][C@@]12OCCN(C(=O)c3cscn3)[C@@]1([H])CC[C@@H]2Oc1ccccn1` | -19.66 |
| 19 | `CCc1nccn1-c1cncc(C2CCCN2Cc2ccc(F)cc2)n1` (centres unmarked) | -12.47 |
| 20 | `Cc1nn(C)cc1-c1cc(C(=O)NCC(C)(C)c2cccc(F)c2)n[nH]1` | 30.68 |
| 21 | `CC(=O)Nc1cccc2c1ccn2CC(=O)NC(C)C` | -2.452 |
| 22 | `Cn1ncnc1-c1ccnc(N2CCC(C(O)c3cccs3)CC2)n1` (centres unmarked) | -59.67 |
| 23 | `CC(O)CC(C)(C)CNC(=O)NCc1cccc(-n2ccnc2)c1` (centres unmarked) | -9.311 |
| 24 | `[H][C@@]12C[C@@H](O)CN1C[C@@H](Cc1ccccc1)N(CC1CCCCC1)C2` | -7.057 |
| 25 | `COCC(=O)N1CCC([C@@H]2C[C@H](C(F)(F)F)n3nc(C)cc3N2)CC1` | 2.723 |
| 26 | `CSc1cc2c(cc1NC(=O)NCCn1ccnc1)OCCO2` | 11.56 |
| 27 | `Cc1oc(-c2ccco2)nc1CNC1CCCN(c2cccnn2)C1` (centres unmarked) | 10.52 |
| 28 | `CNC(=O)c1nnc2ccc(N3CCOCC3)cc2n1` | -18.15 |
| 29 | `Fc1ccc(CNC2CCN(CCc3ccncc3)CC2)cc1F` | 6.927 |
| 30 | `CCNC(=O)NCc1ccnc(N(C)C)n1` | -124.8 |
| 31 | `Cc1ccc(Cl)cc1C(=O)N1CCC2(CC1)c1ccccc1[C@@H](N)[C@@H]2O` | -3.026 |
| 32 | `Cn1nccc1C(=O)NCCN1CCC(O)(c2ccc(F)cc2)CC1` | 16.06 |
| 33 | `CN1CCN(Cc2cccc(NCc3cc[nH]n3)c2)CC1` | -5.587 |
| 34 | `CCC(C)CS(=O)(=O)NC(=O)C1CCC1` (centres unmarked) | -110.4 |
| 35 | `O=C(O)C(F)(F)F.[H][C@@]12COC[C@@H](CC(=O)N3CCCC3)[C@]1([H])CN(Cc1ccccc1)C2` | -6.909 |
| 36 | `Cn1cc(CN2CCCCC2c2ccc(-c3cccc(F)c3)nc2)cn1` (centres unmarked) | 23.52 |
| 37 | `O=C(O)C(F)(F)F.O=C(O)C(F)(F)F.c1ccc(CCN2CCn3cc(Cn4cccn4)nc3C2)cc1` | -23.16 |
| 38 | `[H][C@]12CC[C@]([H])(CN(Cc3cccnc3)C1)N(C(=O)Cc1ccccc1C)C2` | -1.541 |
| 39 | `CCCN1C(=O)CC2(CCCNC2)C1=O.Cl` (centres unmarked) | -8.6 |
| 40 | `CC(=O)N1CCC(c2nnc3ccc(C(=O)NC(C)C)cn23)C1` (centres unmarked) | -21.09 |
| 41 | `O=C(CNc1nc(C(F)(F)F)cs1)N1CCc2sccc2C1` | -12.57 |
| 42 | `Cc1ccsc1CNC(=O)Nc1ccn(CCN2CCOCC2)n1` | -65.01 |
| 43 | `CC(=O)Nc1ncc(S(=O)(=O)Nc2ccccc2)s1` | -19.36 |
| 44 | `Cc1ccsc1CCNC(C)C(=O)NC1CCCC1` (centres unmarked) | -22.72 |
| 45 | `Cc1cc2cc(C(=O)N3C[C@H](O)[C@]4(CCCO4)C3)ccc2o1` | 5.507 |
| 46 | `COc1cccc(-c2cnnc(N(C)CCC3CCCCO3)n2)c1` (centres unmarked) | -7.263 |
| 47 | `[H][C@]1([C@H](O)c2ccc(NC(=O)COC)cc2)COCC(=O)N1C` | 14 |
| 48 | `Cc1nc2c(c(N[C@@H](CO)C(N)=O)n1)Cc1ccccc1OC2` | -52.62 |
| 49 | `Cc1cnccc1CN1Cc2ccccc2O[C@]2(CC[C@H](CO)CC2)C1` | 10.66 |
| 50 | `CN1C(=O)C2(CCN(C(=O)c3ccccc3)CC2)c2cccc(F)c21.Cl` | 0.5381 |
| 51 | `O=C(C1CCCC1)N1CCOc2cccc(F)c21` | -1.998 |
| 52 | `COc1c[nH]c(C(=O)Nc2nc(C)cs2)cc1=O` | -41.45 |
| 53 | `CCN(C)CC1CCN(C(=O)Nc2ccc(C)cc2)C1` (centres unmarked) | -5.805 |
| 54 | `N#CCCNC(=O)CSc1ccc(F)cc1F` | -42.02 |
| 55 | `Cc1nc(CN(C)C(=O)CNC(=O)c2ccc(C#N)cc2)cs1` | -8.485 |
| 56 | `NC(=O)Nc1cccc(C(=O)N(Cc2ccncc2)C2CC2)c1` | -11 |
| 57 | `CNS(=O)(=O)CC(=O)N1CCCc2cc(Br)ccc21` | -66.71 |
| 58 | `O=C(CN1CCCS(=O)(=O)CC1)NCc1ccccc1F` | -38.05 |
| 59 | `CCn1cc(S(=O)(=O)N2CCCSc3ccccc32)cn1` | 14.81 |
| 60 | `O=C(N[C@@H]1CCN(Cc2cc3ccccc3s2)C[C@H]1O)c1cccnc1` | -18.09 |
| 61 | `OC(c1ccccc1)c1cn(C2CCN(Cc3nccs3)CC2)nn1` (centres unmarked) | -17.68 |
| 62 | `O=C(NCc1ccc(Cl)cc1Cl)NCC1(O)CCSC1` (centres unmarked) | -7.045 |
| 63 | `CC(=O)Nc1nc(CS(=O)(=O)CCCc2ccccc2)cs1` | 3.214 |
| 64 | `Cn1ccc(C(=O)N2CCN(c3nccs3)CC2)cc1=O` | -12.93 |
| 65 | `CC(C)(C)c1nc(CN2CCc3onc(-c4cccc(F)c4)c3C2)no1` | 51.86 |
| 66 | `CC(=O)N1CCC(c2ccnc(Nc3cncnc3)n2)CC1` | 17.35 |
| 67 | `Cc1nn(C)c(C)c1CC(=O)N1CCC(N(C)c2cccnn2)CC1` | -53.6 |

The last 8 entries again:

SMILES	Percent Effect
O=C(N[C@@H]1CCN(Cc2cc3ccccc3s2)C[C@H]1O)c1cccnc1	-18.09
OC(c1ccccc1)c1cn(C2CCN(Cc3nccs3)CC2)nn1 (centres unmarked)	-17.68
O=C(NCc1ccc(Cl)cc1Cl)NCC1(O)CCSC1 (centres unmarked)	-7.045
CC(=O)Nc1nc(CS(=O)(=O)CCCc2ccccc2)cs1	3.214
Cn1ccc(C(=O)N2CCN(c3nccs3)CC2)cc1=O	-12.93
CC(C)(C)c1nc(CN2CCc3onc(-c4cccc(F)c4)c3C2)no1	51.86
CC(=O)N1CCC(c2ccnc(Nc3cncnc3)n2)CC1	17.35
Cc1nn(C)c(C)c1CC(=O)N1CCC(N(C)c2cccnn2)CC1	-53.6